Source: paper PMC4450266
No constants are given. Whether binding was seen depends on the method and setting. In cells and extracts the contact can be indirect. These calls come from enrichment with a bait or labelling near it, and not all partners need be listed.

Molecular target: Leo1 (S. pombe)
Experiment: affinity purification with mass spectrometry; Leo1 epitope-tagged at the endogenous locus, affinity purification followed by LC-MS/MS

binding: binds
B1: Tpr1 (protein, UniProt O42668 1-1039)
chain: MEGFTLETHASRIIEVPLLGQEDQSVEIDCSSLPSDATELCEILVNEQAPREFWTKFAHEYYIRGLREQAILILKSGLETLKDSESLCILNANIAAIYLSMAREAMLKKDTDLRDEQLRNVRTYLEAANNIDSKSEINVLLHGIYRILLNPTDKESLENAARCFDFVLQKSGGNILGFLGKARILYAKGNYRSALKLYQRALVSNPQFKPDPRIGIGLCFWNLDMKTDALSAWTRVQQLDPKNTVVDTYIGLYYYDLAFQNVNNDSFVQNYGKALQHIQRAFKTRNNDPVASSILERYVYSKKNYEGCIKLAENVIQNSFSSSLIADGYYWMGRAYHQMGNNEKAMASYQKAKAADDRHLLSSVGIGQIQILQNDLTSAKLTFERIAEQNQSCFEALVVLGCLHASDSKPDLTKARMLLDRAFNLVGSSKLPRVVDSDLYITQARLWEKEDTKKSLGFLTRALDFLESAHMSVGPELLNNIAVLQYHLGLIPEAHGNIIKAKSVLPDANPELSLLLDYNLARCEEELGNTSVASEAYVSILEKHPSFIDARIRKCLLQLSNPNEETFKEIRHIMNADSQNLEVRAFFGWYLSKQKRRPVEDPEVRHCSQTLRHWHDDIYSLVQLGNAYMRQAREFRVHNDREKLKRQKLYIKAIQSYDQAIKFDPKNAHAAQGIAIILAQNRQFSKALLILSKVREAIKDATTLINIGNCLAELKQFSRAIEVFETVYSSTGESDTYGVLSCLGRVWLQRGRESKNVDYLKESVRYATLALEKNPENPSLLFNVAFVQFQLCELIRQKPENSRTVEDLNFAMQQLDASIETFTKLVSVEHPPYSPTSIEQRAKMAKNTTKRQLERAIQAQIEYEKSVAAKLEDARIQREKEKARRLAEEEALLKEKQERERQLQEERQKMQEEVLEWRKSQQKASEDDMSLSDDEEKQSGKKKKKDRKKRKSKSKQESSDSGVSEDDEIPLSDARNKTKKRRVNRRVISEEYTFDQDSDAEGNQEEEVSRTIEEKQDNDITDNQDDNKELNLFSEEDEE
